According to the supplement of paper PMC12819154, “High-throughput peptide-centric local stability assay extends protein–ligand identification to membrane proteins, tissues and bacteria” (Nature Structural & Molecular Biology, 2025):
Some of the results follow. Most values lie at the level of the controls, where differences are scatter.

Sequences of proteins named here, by UniProt entry; tags and fusion partners are left off. A change or cut given only in a name is not applied to a line headed by its entry.
UniProt O75486: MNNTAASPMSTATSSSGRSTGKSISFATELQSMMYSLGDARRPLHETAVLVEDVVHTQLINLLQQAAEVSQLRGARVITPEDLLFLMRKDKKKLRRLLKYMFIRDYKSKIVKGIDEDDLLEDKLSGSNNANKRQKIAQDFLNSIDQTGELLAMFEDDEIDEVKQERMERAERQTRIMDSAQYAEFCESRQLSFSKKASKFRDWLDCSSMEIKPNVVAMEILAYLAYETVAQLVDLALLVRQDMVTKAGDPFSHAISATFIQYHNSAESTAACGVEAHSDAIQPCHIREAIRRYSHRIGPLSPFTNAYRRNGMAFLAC
UniProt O95376: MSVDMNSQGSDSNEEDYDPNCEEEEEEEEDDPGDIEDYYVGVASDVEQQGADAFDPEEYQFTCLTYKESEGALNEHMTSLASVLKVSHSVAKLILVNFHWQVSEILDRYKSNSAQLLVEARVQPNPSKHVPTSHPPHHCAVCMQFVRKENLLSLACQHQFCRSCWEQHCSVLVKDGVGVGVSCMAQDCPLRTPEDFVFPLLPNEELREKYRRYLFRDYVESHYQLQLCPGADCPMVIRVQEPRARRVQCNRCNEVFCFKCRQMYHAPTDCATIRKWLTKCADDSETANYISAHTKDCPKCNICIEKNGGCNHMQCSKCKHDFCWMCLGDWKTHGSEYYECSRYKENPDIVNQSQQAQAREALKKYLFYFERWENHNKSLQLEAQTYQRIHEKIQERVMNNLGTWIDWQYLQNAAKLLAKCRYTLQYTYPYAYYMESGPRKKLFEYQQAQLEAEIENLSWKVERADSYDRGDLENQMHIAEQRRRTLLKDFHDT
UniProt O75448: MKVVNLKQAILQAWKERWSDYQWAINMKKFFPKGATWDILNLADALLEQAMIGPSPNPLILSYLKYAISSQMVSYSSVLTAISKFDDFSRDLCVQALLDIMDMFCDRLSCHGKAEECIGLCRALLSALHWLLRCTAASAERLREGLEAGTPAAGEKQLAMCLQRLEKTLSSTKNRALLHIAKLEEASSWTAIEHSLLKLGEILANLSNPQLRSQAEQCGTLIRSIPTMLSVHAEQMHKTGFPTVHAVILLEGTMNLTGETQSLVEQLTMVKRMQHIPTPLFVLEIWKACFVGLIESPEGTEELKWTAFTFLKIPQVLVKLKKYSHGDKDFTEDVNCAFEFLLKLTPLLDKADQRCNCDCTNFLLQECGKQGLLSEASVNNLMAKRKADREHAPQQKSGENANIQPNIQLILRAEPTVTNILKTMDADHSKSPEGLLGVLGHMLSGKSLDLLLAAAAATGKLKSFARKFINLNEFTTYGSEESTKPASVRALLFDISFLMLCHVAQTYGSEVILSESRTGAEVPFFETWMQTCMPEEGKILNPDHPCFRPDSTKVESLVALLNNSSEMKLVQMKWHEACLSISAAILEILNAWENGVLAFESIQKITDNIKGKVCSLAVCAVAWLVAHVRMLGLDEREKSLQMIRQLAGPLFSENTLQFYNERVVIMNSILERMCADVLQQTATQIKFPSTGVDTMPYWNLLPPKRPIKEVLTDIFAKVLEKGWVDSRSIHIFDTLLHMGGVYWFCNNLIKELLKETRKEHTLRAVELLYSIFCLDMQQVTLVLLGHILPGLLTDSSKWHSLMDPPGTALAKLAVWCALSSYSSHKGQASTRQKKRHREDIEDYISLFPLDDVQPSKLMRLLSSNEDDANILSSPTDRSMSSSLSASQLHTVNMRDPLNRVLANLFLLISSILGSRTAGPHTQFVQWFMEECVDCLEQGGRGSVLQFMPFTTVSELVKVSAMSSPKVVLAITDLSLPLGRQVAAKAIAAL
UniProt O77932: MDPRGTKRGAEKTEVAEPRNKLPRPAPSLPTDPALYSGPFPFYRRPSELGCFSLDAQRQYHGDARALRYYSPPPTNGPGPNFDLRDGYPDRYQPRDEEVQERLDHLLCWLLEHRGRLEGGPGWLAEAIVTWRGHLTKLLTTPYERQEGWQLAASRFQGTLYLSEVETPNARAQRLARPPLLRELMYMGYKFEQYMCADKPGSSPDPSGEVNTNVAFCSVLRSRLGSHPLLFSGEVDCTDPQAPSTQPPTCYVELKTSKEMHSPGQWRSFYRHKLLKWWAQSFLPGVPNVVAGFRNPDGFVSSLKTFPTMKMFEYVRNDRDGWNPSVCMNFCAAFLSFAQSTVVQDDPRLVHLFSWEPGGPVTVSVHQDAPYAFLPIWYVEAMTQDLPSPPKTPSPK
UniProt O94983: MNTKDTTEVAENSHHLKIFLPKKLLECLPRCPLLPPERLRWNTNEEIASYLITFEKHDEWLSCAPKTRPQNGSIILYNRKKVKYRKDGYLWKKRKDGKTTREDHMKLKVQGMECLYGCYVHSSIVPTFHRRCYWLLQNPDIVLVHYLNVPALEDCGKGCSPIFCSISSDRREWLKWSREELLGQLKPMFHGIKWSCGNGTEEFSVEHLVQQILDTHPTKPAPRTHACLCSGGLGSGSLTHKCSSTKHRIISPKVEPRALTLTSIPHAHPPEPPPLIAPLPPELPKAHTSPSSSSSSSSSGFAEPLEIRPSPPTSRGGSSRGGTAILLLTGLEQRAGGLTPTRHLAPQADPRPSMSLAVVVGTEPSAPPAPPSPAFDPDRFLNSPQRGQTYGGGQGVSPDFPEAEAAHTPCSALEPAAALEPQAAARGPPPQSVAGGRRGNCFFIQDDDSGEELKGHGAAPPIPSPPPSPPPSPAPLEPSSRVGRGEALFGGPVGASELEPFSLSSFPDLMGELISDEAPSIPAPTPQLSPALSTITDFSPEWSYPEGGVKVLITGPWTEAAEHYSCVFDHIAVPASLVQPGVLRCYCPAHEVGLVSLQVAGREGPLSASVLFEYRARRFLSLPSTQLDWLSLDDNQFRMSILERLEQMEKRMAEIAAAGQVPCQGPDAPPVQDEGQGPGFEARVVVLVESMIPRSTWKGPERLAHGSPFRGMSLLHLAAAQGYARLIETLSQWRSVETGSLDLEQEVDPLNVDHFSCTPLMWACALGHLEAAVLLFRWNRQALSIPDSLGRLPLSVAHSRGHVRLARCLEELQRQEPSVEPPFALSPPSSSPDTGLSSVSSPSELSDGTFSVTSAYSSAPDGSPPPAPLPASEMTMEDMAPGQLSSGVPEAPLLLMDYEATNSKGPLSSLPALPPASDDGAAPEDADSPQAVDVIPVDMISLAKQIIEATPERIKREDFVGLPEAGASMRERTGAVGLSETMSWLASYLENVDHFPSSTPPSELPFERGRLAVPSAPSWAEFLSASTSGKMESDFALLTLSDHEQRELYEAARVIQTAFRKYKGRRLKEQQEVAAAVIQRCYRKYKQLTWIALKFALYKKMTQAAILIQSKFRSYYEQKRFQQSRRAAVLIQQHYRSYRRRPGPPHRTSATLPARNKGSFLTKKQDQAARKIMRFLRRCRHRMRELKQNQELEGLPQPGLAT
UniProt O75439: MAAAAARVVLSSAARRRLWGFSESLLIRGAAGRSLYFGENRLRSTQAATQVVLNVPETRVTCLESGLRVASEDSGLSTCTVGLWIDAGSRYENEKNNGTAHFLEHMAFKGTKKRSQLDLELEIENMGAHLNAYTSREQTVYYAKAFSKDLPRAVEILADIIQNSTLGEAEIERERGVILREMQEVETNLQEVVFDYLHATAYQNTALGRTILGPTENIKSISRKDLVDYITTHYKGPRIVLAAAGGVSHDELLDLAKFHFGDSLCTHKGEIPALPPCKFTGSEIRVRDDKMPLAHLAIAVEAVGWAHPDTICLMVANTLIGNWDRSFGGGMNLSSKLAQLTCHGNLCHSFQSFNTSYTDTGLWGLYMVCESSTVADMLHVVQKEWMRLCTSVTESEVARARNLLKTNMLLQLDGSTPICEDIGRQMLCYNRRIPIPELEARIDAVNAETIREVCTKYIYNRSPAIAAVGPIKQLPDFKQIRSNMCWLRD
UniProt O95696: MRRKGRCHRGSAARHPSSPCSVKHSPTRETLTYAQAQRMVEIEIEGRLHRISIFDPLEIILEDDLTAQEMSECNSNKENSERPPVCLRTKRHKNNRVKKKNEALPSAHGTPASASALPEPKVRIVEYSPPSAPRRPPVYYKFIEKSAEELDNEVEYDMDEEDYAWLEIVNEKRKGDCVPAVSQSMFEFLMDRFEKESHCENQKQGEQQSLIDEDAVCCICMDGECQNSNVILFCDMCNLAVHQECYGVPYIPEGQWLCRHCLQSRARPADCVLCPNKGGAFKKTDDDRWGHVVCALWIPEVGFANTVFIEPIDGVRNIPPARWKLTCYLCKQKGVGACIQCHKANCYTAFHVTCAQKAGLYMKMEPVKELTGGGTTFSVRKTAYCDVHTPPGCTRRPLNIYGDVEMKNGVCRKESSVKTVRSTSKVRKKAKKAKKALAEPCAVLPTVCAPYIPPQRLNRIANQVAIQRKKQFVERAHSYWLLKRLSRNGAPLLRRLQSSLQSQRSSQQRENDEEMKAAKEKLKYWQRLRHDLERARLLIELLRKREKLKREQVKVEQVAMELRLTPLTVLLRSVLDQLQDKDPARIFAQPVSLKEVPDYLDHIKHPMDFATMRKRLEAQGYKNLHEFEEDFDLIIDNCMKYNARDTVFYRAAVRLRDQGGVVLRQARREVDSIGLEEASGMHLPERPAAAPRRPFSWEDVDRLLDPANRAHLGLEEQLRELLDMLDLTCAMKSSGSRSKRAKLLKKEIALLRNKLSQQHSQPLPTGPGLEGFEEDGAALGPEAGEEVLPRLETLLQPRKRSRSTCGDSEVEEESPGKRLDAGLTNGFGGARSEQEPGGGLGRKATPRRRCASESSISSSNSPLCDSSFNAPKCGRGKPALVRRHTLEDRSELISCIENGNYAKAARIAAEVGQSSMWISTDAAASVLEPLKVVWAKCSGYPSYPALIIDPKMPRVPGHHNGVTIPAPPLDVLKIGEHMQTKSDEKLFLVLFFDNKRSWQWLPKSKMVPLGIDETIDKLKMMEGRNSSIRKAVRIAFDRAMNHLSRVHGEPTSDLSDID
UniProt O75880: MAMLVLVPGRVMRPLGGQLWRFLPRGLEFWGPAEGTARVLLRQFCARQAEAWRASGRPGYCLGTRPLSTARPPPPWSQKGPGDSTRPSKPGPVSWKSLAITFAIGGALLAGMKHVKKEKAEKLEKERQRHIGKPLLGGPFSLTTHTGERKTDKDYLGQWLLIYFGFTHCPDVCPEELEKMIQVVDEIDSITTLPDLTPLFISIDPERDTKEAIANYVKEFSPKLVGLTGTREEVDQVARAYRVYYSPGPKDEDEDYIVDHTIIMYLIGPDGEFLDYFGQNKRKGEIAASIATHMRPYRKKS
UniProt O95931, whole entry: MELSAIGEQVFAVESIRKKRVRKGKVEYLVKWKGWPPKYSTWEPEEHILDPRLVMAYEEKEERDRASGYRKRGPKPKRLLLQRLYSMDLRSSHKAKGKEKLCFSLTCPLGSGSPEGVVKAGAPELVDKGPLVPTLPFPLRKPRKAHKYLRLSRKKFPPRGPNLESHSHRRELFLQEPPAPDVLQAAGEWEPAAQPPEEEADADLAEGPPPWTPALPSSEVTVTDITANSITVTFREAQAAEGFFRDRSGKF
UniProt O95831, whole entry: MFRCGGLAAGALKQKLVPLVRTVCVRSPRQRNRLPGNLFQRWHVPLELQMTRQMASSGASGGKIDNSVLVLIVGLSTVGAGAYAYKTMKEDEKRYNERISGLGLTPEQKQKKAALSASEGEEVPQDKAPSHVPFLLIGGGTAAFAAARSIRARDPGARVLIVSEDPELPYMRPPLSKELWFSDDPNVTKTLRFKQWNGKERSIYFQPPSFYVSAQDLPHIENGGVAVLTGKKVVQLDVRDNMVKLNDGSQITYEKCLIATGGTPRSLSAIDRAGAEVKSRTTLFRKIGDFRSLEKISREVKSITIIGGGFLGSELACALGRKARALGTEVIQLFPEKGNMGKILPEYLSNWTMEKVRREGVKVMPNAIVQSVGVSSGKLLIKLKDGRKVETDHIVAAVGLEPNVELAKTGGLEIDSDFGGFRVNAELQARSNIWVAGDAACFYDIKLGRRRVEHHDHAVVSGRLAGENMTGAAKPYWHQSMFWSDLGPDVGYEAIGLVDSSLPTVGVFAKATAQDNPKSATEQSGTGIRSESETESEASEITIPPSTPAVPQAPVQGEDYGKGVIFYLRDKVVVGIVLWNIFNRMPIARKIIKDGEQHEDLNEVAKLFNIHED
UniProt O95630, whole entry: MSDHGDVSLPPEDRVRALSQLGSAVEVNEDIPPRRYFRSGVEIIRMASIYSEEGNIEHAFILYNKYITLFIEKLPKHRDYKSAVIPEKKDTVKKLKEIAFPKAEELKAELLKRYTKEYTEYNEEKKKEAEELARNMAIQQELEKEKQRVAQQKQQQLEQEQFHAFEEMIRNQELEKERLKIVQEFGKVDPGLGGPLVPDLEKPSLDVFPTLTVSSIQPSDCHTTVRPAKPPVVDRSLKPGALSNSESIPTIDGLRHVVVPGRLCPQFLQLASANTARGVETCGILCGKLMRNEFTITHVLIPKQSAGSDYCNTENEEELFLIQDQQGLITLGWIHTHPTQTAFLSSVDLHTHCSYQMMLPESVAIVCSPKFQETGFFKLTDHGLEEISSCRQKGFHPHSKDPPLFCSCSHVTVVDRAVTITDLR

Compound: CN[C@@H]1C[C@H]2O[C@@](C)([C@@H]1OC)n1c3ccccc3c3c4c(c5c6ccccc6n2c5c31)C(=O)NC4 [staurosporine]
Assay: log2 fold change of tryptic peptide abundance, ligand vs vehicle (limited proteolysis) (log2 ratio); higher = more trypsin-susceptible (destabilized)
Conditions: ligand concentration: 20 uM; sample: K562 cleared lysate; digestion: 4 min, 22 C (HT-PELSA RT4min, Orbitrap Astral)

Target	log2 fold change
SUPT3H (peptide sequence: GIDEDDLLEDKLSGSNNANKR, peptide start residue: 113) (UniProt O75486)	-0.167
UniProt O75530 (peptide sequence: IHFPDFSTR, peptide start residue: 294)	0.559
SRP72 (peptide sequence: VLANNSLSFEK, peptide start residue: 74) (UniProt O76094)	0.161
UniProt O75947 (peptide sequence: SWNETLTSR, peptide start residue: 33)	-0.0978
ARIH2 (peptide sequence: ESEGALNEHMTSLASVLK, peptide start residue: 68) (UniProt O95376)	0.125
MED24 (peptide sequence: LEEASSWTAIEHSLLK, peptide start residue: 183) (UniProt O75448)	1.13
UniProt O95568 (peptide sequence: ELSVSESQK, peptide start residue: 32)	-0.298
UniProt O95777 (peptide sequence: GFDQTINLILDESHER, peptide start residue: 29)	-0.32
ZFAND5 (peptide sequence: ADTSLNNCEGAAGSTSEK, peptide start residue: 69) (UniProt O76080)	-0.228
UniProt O77932 (peptide sequence: GAEKTEVAEPR, peptide start residue: 9)	-0.109
UniProt O75808 (peptide sequence: LAELLSGKR, peptide start residue: 286)	0.434
UniProt O94874 (peptide sequence: IPEDQHALLVK, peptide start residue: 720)	0.301
TADA2A (peptide sequence: TYDHLKK, peptide start residue: 302) (UniProt O75478)	0.234
UniProt O94983 (peptide sequence: MESDFALLTLSDHEQR, peptide start residue: 1031)	-0.457
PMPCB (peptide sequence: SNMCWLRD, peptide start residue: 482) (UniProt O75439)	0.423
UniProt O75820 (peptide sequence: VHTGEKPFQCNECGK, peptide start residue: 169)	-0.473
UniProt O95696 (peptide sequence: LDAGLTNGFGGAR, peptide start residue: 819)	-0.382
SCO1 (peptide sequence: GPGDSTRPSKPGPVSWK, peptide start residue: 80) (UniProt O75880)	0.229
TOM1L1 (peptide sequence: ILEQNKNQK, peptide start residue: 293) (UniProt O75674)	0.363
MBD4 (peptide sequence: MAIPVLWK, peptide start residue: 473) (UniProt O95243)	0.345
RSL1D1 (peptide sequence: SDSEDICLFTK, peptide start residue: 90) (UniProt O76021)	-0.71
UniProt O95931 (peptide sequence: LVMAYEEKEER, peptide start residue: 53)	0.257
AIFM1 (peptide sequence: KVETDHIVAAVGLEPNVELAK, peptide start residue: 388) (UniProt O95831)	0.316
STAMBP (peptide sequence: KKEAEELAR, peptide start residue: 126) (UniProt O95630)	0.345
UniProt O95104 (peptide sequence: GKEKPEVTDR, peptide start residue: 1077)	0.217

Reprinted at random: 2 entries already listed
Target	log2 fold change
STAMBP (peptide sequence: KKEAEELAR, peptide start residue: 126) (UniProt O95630)	0.345
UniProt O95777 (peptide sequence: GFDQTINLILDESHER, peptide start residue: 29)	-0.32
